The text below walks through data of the supplement of paper PMC12067093, “Discovery and optimisation of a covalent ligand for TRIM25 and its application to targeted protein ubiquitination” (Chemical Science, 2025).

Compound in the assay: CC1Cc2ccccc2N1C(=O)C1CCCN(C1)C(=O)CCl (mixture of isomers) [TRIM25 ligand 11 (diastereomer mixture)]
The assay can be described thus: probe-labelled cysteine peptide fold change vs DMSO (competition) (log2 fold change); higher = less target engagement (more negative = stronger competition). The note with it: THP-1, incubation time: 4 h.

The other results are listed elsewhere or left out.
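Further: competitive chemoproteomic profiling in live THP-1 cells with an iodoacetamide desthiobiotin (IA-DTB) probe, comparing probe-labelled peptide intensities in compound-treated cells against DMSO-treated controls.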

As for “RBX1_P62877_94_QVCPLDNR (UniProt P62877)”, the “probe-labelled cysteine peptide fold change” value is, setting by setting: (10 µM) 0.0929; (50 µM) 0.159.
The corresponding values for “RAPGEF6_Q8TEU7_1413_HTHLDDPIAEVEPTDSEPYSCSK (UniProt Q8TEU7)” are -0.102 and -0.184.
“RALGAPA2_Q2PPJ7_418_GYVNFVNEVFHQAFLLPSCEIAVTR (UniProt Q2PPJ7)”: the “probe-labelled cysteine peptide fold change” value came out at 0.282 (10 µM) and 0.183 (50 µM).
As to “RANGAP1_P46060_303_ELNLSFCEIKR (UniProt P46060)”, the “probe-labelled cysteine peptide fold change” value is -0.127 (10 µM) and -0.153 (50 µM).
Turning to “RBM10_P98175_222_CGVQNFK (UniProt P98175)”, the “probe-labelled cysteine peptide fold change” value was -0.0501 (10 µM) and 0.0541 (50 µM).
With “RCCD1_A6NED2_139_LPLLPCAR (UniProt A6NED2)”, the “probe-labelled cysteine peptide fold change” value (10 µM) was -0.281.
With “RASSF4_Q9H2L5_145_SDASCMSQR (UniProt Q9H2L5)”, the “probe-labelled cysteine peptide fold change” value reads like this: (10 µM) -0.0458; (50 µM) 0.0314.
The corresponding values for “RCC2_Q9P258_337_DVACGANHTLVLDSQK (UniProt Q9P258)” are 0.0808 and 0.077.
Consider “RBM25_P49756_110_CGLVLSWK (UniProt P49756)”, for which the “probe-labelled cysteine peptide fold change” value is 0.107 (10 µM) and -0.0148 (50 µM).
Take “RASGRP2_Q7LDG7_186_ILFQDYHSFVTHGCTVDNPVLER (UniProt Q7LDG7)”: the “probe-labelled cysteine peptide fold change” value worked out at 0.0656 (10 µM) and 0.0818 (50 µM).
Consider “RC3H1_Q5TC82_143_LVTLVHCQLVEEEGR (UniProt Q5TC82)”, for which the “probe-labelled cysteine peptide fold change” value (10 µM) is -0.0878 and the “probe-labelled cysteine peptide fold change” value (50 µM) stood at 0.288.
On the same counts, the results for “RBM22_Q9NW64_179_RGEECPYR (UniProt Q9NW64)” are -0.088 and 0.0543.
Consider “RANBP9_Q96S59_719_SGIGSCAFATVEDYLH (UniProt Q96S59)”, for which the “probe-labelled cysteine peptide fold change” value is -0.386 (10 µM) and -0.319 (50 µM).
As for “RANBP2_P49792_1749_CIACQCPSK (UniProt P49792)”, the “probe-labelled cysteine peptide fold change” value is -0.032 (10 µM) and 0.157 (50 µM).
For the target “RAI1_Q7Z5J4_1729_VRPEGTCEEASLPLER (UniProt Q7Z5J4)”, the “probe-labelled cysteine peptide fold change” value was -0.151 (10 µM) and -0.188 (50 µM).
“RBM34_P42696_310_HFLDCGSIMAVR (UniProt P42696)”: the “probe-labelled cysteine peptide fold change” value is, setting by setting: (10 µM) 0.227; (50 µM) 0.222.
Take “RASA1_P20936_616_HFTNPYCNIYLNSVQVAK (UniProt P20936)”: the “probe-labelled cysteine peptide fold change” value runs as follows: (10 µM) -0.0173; (50 µM) -0.157.
On the same counts, the results for “RARS_P54136_638_MLLCEAVAAVMAK (UniProt P54136)” are -0.0816 and 0.17.
As for “RAVER1_Q8IY67_224_CLCVDRLPPGFNDVDALCR (UniProt Q8IY67)”, the “probe-labelled cysteine peptide fold change” value was -0.267 (10 µM) and -0.102 (50 µM).
For “RASSF5_Q8WWW0_225_NCLGMK (UniProt Q8WWW0)”, the “probe-labelled cysteine peptide fold change” value is -0.142 (10 µM) and -0.21 (50 µM).
Take “RCC1L_Q96I51_114_ISSAACGYGFTLLSSK (UniProt Q96I51)”: the “probe-labelled cysteine peptide fold change” value (10 µM) was determined as 0.118 and the “probe-labelled cysteine peptide fold change” value (50 µM) is 0.152.
On the same counts, the results for “RANBP2_P49792_1424_KEGHWDCSICLVR (UniProt P49792)” are -0.109 and 0.0179.
As to “RANBP9_Q96S59_707_QPPLALAMGQATQCLGLMAR (UniProt Q96S59)”, the “probe-labelled cysteine peptide fold change” value (10 µM) amounted to 0.028 and the “probe-labelled cysteine peptide fold change” value (50 µM) was determined as 0.00949.
The corresponding values for “RANGAP1_P46060_573_ALAPLLLAFVTKPNSALESCSFAR (UniProt P46060)” are -0.308 and -0.131.
The corresponding values for “RAP1GDS1_P52306_117_ALGNICYDSHEGR (UniProt P52306)” are -0.092 and -0.0739.
As to “RBM22_Q9NW64_74_TEVCQTCSK (UniProt Q9NW64)”, the “probe-labelled cysteine peptide fold change” value (10 µM) was -0.0386 and the “probe-labelled cysteine peptide fold change” value (50 µM) is -0.0803.
Regarding “RANBP2_P49792_581_HGLQPALLVHWAECLQK (UniProt P49792)”, the “probe-labelled cysteine peptide fold change” value reads like this: (10 µM) 0.0261; (50 µM) 0.0609.
Take “RAE1_P78406_93_AQQMHTGPVLDVCWSDDGSK (UniProt P78406)”: the “probe-labelled cysteine peptide fold change” value (10 µM) was -0.137 and the “probe-labelled cysteine peptide fold change” value (50 µM) was -0.21.
On to “RBM27_Q9P2N5_776_LGHAGGNQSDASHLLNQSGGAGEDCQIFSTPGHPK (UniProt Q9P2N5)”, for which the “probe-labelled cysteine peptide fold change” value runs as follows: (10 µM) -0.0105; (50 µM) -0.127.
Turning to “RAD54L2_Q9Y4B4_533_QEFSNMFERPILNGQCIDSTPQDVR (UniProt Q9Y4B4)”, the “probe-labelled cysteine peptide fold change” value by setting is: (10 µM) 0.0549; (50 µM) -0.138.
With “RANBP6_O60518_741_VAAAESMPFLLECAR (UniProt O60518)”, the “probe-labelled cysteine peptide fold change” value was 0.0327 (10 µM) and -0.00855 (50 µM).
In the case of “RANBP2_P49792_1549_EGQWDCSSCLVR (UniProt P49792)”, the “probe-labelled cysteine peptide fold change” value is, setting by setting: (10 µM) 0.00669; (50 µM) -0.173.
The corresponding values for “RAP1A_P62834_118_DTEDVPMILVGNKCDLEDERVVGK (UniProt P62834)” are -0.603 and -0.364.
As for “RASAL2_Q9UJF2_360_CGEHDVLIFR (UniProt Q9UJF2)”, the “probe-labelled cysteine peptide fold change” value by setting is: (10 µM) 0.0414; (50 µM) 0.0685.
On to “RCL1_Q9Y2P8_292_GGCVDSTNQSLALLLMTLGQQDVSK (UniProt Q9Y2P8)”, for which the “probe-labelled cysteine peptide fold change” value (10 µM) stood at 0.137 and the “probe-labelled cysteine peptide fold change” value (50 µM) was determined as 0.0113.
“RARS_P54136_32_NCGCLGASPNLEQLQEENLK (UniProt P54136)”: the “probe-labelled cysteine peptide fold change” value runs as follows: (10 µM) -0.00374; (50 µM) -0.0785.
For the target “RANBP9_Q96S59_594_HDHEMEDCDTEMEVDSSQLR (UniProt Q96S59)”, the “probe-labelled cysteine peptide fold change” value is -0.237 (10 µM) and -0.367 (50 µM).
Regarding “RBBP9_O75884_163_FTDCGHFQNTEFHELITVVK (UniProt O75884)”, the “probe-labelled cysteine peptide fold change” value is 0.0304 (10 µM) and -0.0766 (50 µM).
